The test deals with T1, PAG1-FLAG (Arabidopsis thaliana) (UniProt O23715).
T1 sequence: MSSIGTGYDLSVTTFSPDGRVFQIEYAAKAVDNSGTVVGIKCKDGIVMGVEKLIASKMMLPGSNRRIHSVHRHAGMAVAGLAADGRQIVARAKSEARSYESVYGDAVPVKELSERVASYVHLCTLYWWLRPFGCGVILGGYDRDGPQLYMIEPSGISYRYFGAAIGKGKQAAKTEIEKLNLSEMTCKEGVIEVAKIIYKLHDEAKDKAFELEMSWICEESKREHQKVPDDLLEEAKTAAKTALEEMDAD
Briefly: co-IP; PAG1-FLAG on anti-FLAG M2 resin from seedling lysate, lysis and co-IP without exogenous ATP, 12-h time point, eluates immunoblotted. (In general: A western blot detects proteins with antibodies after separation by electrophoresis.)

No constants are given. Whether binding was seen depends on the method and setting. In cells and extracts the contact can be indirect. Binding can be weak; no strength is given. Where a sequence is shown, tags or fusion partners need not be part of it.

For the substance HSP70, the binding entry is reported as “binds”.

Source of the values: article PMC8543921.
